Results are given in words; binding and its absence hold for the method and conditions named. Some binding calls cover weakened binding; strength is not graded here.
T1: interleukin-6 signal transducer (IL6ST) on human ovarian cancer cells (human), P40189
T1 chain: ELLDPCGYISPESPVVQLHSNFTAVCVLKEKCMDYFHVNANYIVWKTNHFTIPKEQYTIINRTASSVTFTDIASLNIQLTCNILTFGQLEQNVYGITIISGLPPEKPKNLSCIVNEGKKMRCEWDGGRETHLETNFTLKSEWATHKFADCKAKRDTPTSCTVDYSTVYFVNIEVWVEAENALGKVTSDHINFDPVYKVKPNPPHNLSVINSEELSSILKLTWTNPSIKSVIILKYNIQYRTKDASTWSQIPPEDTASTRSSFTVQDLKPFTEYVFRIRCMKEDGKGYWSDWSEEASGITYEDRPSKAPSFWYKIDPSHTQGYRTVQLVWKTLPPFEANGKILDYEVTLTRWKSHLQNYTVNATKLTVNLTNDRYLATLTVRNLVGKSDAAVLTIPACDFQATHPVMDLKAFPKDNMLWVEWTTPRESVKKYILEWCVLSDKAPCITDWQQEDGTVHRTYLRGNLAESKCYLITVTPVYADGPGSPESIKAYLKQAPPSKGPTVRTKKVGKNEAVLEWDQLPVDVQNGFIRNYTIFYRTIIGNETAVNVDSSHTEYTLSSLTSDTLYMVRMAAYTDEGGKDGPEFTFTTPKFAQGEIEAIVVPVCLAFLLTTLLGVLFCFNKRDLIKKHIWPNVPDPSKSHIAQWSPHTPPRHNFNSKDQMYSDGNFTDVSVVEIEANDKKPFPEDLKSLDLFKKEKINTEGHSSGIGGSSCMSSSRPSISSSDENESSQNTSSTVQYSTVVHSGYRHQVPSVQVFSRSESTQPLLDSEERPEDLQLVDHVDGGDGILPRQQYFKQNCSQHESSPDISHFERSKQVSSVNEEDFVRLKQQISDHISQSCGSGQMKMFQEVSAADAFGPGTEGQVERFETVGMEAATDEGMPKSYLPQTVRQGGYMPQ

The chains behind the UniProt entries cited, without tags or fusion partners. Residues count along the entry.
UniProt Q8NI17, residues 20-732: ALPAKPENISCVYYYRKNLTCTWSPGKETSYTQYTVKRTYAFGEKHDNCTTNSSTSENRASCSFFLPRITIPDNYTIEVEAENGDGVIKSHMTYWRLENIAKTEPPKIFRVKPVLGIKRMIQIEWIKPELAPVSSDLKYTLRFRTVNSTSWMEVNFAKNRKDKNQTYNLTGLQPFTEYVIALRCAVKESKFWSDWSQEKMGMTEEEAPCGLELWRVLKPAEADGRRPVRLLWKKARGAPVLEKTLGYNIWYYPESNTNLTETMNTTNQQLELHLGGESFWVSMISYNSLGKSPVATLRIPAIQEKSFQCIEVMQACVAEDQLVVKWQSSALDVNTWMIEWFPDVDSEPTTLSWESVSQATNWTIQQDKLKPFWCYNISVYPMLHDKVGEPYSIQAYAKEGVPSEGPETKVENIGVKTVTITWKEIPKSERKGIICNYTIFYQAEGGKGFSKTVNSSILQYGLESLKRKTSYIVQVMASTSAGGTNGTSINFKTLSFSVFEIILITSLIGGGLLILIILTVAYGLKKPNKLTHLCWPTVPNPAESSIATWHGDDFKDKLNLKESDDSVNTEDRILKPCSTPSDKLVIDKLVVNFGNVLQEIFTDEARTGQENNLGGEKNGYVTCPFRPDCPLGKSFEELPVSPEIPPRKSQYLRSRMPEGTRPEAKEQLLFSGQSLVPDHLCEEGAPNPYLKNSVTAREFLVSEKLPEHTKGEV


Assays:
[1] = biological target: Interleukin-31 Receptor (IL31RA) on human ovarian cancer cells (human) (UniProt Q8NI17); experiment: OSMR immunoprecipitation, immunoblot; IL31-induced heterodimer
[2] = biological target: T1, interleukin-6 signal transducer (IL6ST) …; experiment: BS3 cross-linking dimerization assay in A2780 sensitive and A2780-CP cells after OSM stimulation; conditions: remark: other sources report otherwise
[3] = biological target: T1, interleukin-6 signal transducer (IL6ST) …; experiment: dimerization assay (cross-linking, immunoprecipitation) after OSM stimulation; conditions: remark: other sources report otherwise

| Binder | binding [1] | binding [2] | binding [3] |
| --- | --- | --- | --- |
| OSMR on human ovarian cancer cells (HEYA8, OVCAR4, A2780) (receptor, UniProt Q99650 28-979, looked up) ERLPLTPVSLKVSTNSTRQSLHLQWTVHNLPYHQELKMVFQIQISRIETSNVIWVGNYSTTVKWNQVLHWSWESELPLECATHFVRIKSLVDDAKFPEPNFWSNWSSWEEVSVQDSTGQDILFVFPKDKLVEEGTNVTICYVSRNIQNNVSCYLEGKQIHGEQLDPHVTAFNLNSVPFIRNKGTNIYCEASQGNVSEGMKGIVLFVSKVLEEPKDFSCETEDFKTLHCTWDPGTDTALGWSKQPSQSYTLFESFSGEKKLCTHKNWCNWQITQDSQETYNFTLIAENYLRKRSVNILFNLTHRVYLMNPFSVNFENVNATNAIMTWKVHSIRNNFTYLCQIELHGEGKMMQYNVSIKVNGEYFLSELEPATEYMARVRCADASHFWKWSEWSGQNFTTLEAAPSEAPDVWRIVSLEPGNHTVTLFWKPLSKLHANGKILFYNVVVENLDKPSSSELHSIPAPANSTKLILDRCSYQICVIANNSVGASPASVIVISADPENKEVEEERIAGTEGGFSLSWKPQPGDVIGYVVDWCDHTQDVLGDFQWKNVGPNTTSTVISTDAFRPGVRYDFRIYGLSTKRIACLLEKKTGYSQELAPSDNPHVLVDTLTSHSFTLSWKDYSTESQPGFIQGYHVYLKSKARQCHPRFEKAVLSDGSECCKYKIDNPEEKALIVDNLKPESFYEFFITPFTSAGEGPSATFTKVTTPDEHSSMLIHILLPMVFCVLLIMVMCYLKSQWIKETCYPDIPDPYKSSILSLIKFKENPHLIIMNVSDCIPDAIEVVSKPEGTKIQFLGTRKSLTETELTKPNYLYLLPTEKNHSGPGPCICFENLTYNQAASDSGSCGHVPVSPKAPSMLGLMTSPENVLKALEKNYMNSLGEIPAGETSLNYVSQLASPMFGDKDSLPTNPVEAPHCSEYKMQMAVSLRLALPPPTENSSLSSITLLDPGEHYC | binds |  |  |
| OSMR on human ovarian cancer cells (HEYA8, OVCAR4, A2780), Q99650 28-979 (receptor, UniProt Q99650 28-979, looked up) ERLPLTPVSLKVSTNSTRQSLHLQWTVHNLPYHQELKMVFQIQISRIETSNVIWVGNYSTTVKWNQVLHWSWESELPLECATHFVRIKSLVDDAKFPEPNFWSNWSSWEEVSVQDSTGQDILFVFPKDKLVEEGTNVTICYVSRNIQNNVSCYLEGKQIHGEQLDPHVTAFNLNSVPFIRNKGTNIYCEASQGNVSEGMKGIVLFVSKVLEEPKDFSCETEDFKTLHCTWDPGTDTALGWSKQPSQSYTLFESFSGEKKLCTHKNWCNWQITQDSQETYNFTLIAENYLRKRSVNILFNLTHRVYLMNPFSVNFENVNATNAIMTWKVHSIRNNFTYLCQIELHGEGKMMQYNVSIKVNGEYFLSELEPATEYMARVRCADASHFWKWSEWSGQNFTTLEAAPSEAPDVWRIVSLEPGNHTVTLFWKPLSKLHANGKILFYNVVVENLDKPSSSELHSIPAPANSTKLILDRCSYQICVIANNSVGASPASVIVISADPENKEVEEERIAGTEGGFSLSWKPQPGDVIGYVVDWCDHTQDVLGDFQWKNVGPNTTSTVISTDAFRPGVRYDFRIYGLSTKRIACLLEKKTGYSQELAPSDNPHVLVDTLTSHSFTLSWKDYSTESQPGFIQGYHVYLKSKARQCHPRFEKAVLSDGSECCKYKIDNPEEKALIVDNLKPESFYEFFITPFTSAGEGPSATFTKVTTPDEHSSMLIHILLPMVFCVLLIMVMCYLKSQWIKETCYPDIPDPYKSSILSLIKFKENPHLIIMNVSDCIPDAIEVVSKPEGTKIQFLGTRKSLTETELTKPNYLYLLPTEKNHSGPGPCICFENLTYNQAASDSGSCGHVPVSPKAPSMLGLMTSPENVLKALEKNYMNSLGEIPAGETSLNYVSQLASPMFGDKDSLPTNPVEAPHCSEYKMQMAVSLRLALPPPTENSSLSSITLLDPGEHYC |  | binds | binds |

— patent US20250197513A1, “OSMR-SPECIFIC MONOCLONAL ANTIBODIES AND METHODS OF THEIR USE” (THE BOARD OF REGENTS OF THE UNIVERSITY OF TEXAS SYSTEM, priority 2021, published 2025)
